Measurements from publication PMC7157520.
No constants are given. Whether binding was seen depends on the method and setting. In cells and extracts the contact can be indirect. Sequences can lack the tags named with a protein.

Sequences of proteins named here, by UniProt entry; tags and fusion partners are left off. A change or cut given only in a name is not applied to a line headed by its entry. A line that says so, or that is headed by a name, gives the form on record, which may keep a tag or linker.
UniProt P21827: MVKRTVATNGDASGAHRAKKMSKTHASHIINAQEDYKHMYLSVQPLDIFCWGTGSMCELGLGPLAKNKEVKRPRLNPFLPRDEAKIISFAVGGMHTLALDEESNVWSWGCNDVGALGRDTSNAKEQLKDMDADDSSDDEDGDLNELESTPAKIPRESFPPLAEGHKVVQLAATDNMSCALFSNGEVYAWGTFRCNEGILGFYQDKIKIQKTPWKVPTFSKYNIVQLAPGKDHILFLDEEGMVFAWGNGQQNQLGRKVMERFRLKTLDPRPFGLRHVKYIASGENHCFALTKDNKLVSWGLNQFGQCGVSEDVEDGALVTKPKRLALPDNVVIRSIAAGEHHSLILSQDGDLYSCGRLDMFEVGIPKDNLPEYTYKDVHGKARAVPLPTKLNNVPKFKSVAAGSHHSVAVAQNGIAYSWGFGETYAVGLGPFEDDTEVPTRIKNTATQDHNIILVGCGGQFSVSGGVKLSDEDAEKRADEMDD
UniProt P11745: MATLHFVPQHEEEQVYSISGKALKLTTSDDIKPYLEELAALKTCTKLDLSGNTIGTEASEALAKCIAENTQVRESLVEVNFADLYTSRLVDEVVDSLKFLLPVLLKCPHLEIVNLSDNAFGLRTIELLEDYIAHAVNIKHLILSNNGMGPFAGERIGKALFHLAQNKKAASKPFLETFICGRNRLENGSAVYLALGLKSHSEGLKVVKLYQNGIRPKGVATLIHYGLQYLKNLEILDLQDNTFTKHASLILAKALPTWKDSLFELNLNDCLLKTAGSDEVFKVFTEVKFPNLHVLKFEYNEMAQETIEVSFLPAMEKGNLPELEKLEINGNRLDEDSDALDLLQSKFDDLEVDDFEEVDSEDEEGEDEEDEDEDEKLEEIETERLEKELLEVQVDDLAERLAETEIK
Strep-tagged RNA1-1 (P11745, form named): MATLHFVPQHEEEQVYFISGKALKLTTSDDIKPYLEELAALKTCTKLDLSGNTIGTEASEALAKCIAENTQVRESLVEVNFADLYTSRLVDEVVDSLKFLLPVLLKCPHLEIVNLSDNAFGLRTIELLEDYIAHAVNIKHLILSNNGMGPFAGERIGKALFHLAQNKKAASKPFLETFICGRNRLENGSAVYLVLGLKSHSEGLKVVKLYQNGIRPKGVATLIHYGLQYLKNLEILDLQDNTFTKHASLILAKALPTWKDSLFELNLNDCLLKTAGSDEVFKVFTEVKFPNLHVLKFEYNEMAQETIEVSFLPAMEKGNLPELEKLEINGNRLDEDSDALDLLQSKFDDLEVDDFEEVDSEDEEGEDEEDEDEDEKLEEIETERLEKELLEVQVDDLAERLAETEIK

Molecular target: T1, FLAG-LegG1 (L. pneumophila strain Philadelphia-1) (UniProt Q5ZU32)
T1 sequence: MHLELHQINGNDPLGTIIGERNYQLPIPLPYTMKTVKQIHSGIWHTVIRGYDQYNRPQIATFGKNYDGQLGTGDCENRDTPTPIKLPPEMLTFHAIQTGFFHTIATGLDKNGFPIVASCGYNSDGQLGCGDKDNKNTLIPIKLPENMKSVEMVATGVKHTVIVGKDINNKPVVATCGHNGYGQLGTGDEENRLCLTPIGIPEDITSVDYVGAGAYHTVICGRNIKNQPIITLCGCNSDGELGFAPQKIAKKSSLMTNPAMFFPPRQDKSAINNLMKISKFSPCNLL
Test: co-IP

| Substance | binding |
| --- | --- |
| Strep-PRP20 (from UniProt P21827 1-482) | no binding |
| Strep-tagged RNA1-1 (from UniProt P11745 1-407) | no binding |
